# The supplement of paper PMC10849652
# Protein sequences, listed by entry. Tags and fused reporters are not part of them. Lines headed by an entry give the natural chain unless they say otherwise; changes in a name come on top.
# UniProt Q8N9N2: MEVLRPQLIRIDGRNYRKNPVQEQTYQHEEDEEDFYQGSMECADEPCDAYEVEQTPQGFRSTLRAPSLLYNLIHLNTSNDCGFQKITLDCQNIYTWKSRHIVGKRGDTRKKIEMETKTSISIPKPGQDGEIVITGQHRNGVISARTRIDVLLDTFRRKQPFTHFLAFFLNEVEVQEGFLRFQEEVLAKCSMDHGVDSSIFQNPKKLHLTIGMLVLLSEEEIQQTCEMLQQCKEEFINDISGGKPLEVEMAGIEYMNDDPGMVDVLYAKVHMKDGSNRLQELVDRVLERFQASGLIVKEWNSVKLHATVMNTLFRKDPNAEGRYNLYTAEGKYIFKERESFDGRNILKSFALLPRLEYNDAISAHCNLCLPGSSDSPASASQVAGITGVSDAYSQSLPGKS
# UniProt P56211: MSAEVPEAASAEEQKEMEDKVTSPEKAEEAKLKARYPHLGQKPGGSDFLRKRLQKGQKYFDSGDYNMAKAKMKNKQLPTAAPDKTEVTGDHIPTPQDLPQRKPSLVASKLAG
# UniProt Q9ULH1: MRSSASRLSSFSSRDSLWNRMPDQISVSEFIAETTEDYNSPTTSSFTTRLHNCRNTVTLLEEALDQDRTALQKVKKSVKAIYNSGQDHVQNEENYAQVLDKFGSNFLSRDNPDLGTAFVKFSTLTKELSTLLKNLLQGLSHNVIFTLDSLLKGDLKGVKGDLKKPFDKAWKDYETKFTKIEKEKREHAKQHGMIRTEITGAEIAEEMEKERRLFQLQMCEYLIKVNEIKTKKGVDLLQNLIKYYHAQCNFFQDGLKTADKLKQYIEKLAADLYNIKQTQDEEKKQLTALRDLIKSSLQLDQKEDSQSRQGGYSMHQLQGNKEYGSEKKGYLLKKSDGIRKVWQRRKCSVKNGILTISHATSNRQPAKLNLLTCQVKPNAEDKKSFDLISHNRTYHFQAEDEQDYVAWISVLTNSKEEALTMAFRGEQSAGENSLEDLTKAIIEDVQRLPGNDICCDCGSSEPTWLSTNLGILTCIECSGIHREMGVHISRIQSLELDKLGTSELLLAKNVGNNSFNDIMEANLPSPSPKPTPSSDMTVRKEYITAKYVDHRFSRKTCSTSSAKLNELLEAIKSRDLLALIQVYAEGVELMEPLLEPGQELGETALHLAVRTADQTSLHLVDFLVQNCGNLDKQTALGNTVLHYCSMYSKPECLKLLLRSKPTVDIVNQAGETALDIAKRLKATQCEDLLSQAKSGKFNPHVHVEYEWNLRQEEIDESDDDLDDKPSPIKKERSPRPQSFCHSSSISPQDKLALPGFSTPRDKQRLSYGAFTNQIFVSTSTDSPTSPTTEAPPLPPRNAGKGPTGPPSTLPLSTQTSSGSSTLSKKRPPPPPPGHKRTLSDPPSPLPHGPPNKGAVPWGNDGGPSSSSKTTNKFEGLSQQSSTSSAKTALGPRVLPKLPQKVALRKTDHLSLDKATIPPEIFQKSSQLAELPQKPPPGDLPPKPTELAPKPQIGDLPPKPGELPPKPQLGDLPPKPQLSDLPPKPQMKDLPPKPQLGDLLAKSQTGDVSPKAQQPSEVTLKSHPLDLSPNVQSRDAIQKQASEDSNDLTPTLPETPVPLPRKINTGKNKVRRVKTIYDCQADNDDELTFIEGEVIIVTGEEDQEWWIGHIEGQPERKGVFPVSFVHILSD
# UniProt P06576, whole entry, looked up: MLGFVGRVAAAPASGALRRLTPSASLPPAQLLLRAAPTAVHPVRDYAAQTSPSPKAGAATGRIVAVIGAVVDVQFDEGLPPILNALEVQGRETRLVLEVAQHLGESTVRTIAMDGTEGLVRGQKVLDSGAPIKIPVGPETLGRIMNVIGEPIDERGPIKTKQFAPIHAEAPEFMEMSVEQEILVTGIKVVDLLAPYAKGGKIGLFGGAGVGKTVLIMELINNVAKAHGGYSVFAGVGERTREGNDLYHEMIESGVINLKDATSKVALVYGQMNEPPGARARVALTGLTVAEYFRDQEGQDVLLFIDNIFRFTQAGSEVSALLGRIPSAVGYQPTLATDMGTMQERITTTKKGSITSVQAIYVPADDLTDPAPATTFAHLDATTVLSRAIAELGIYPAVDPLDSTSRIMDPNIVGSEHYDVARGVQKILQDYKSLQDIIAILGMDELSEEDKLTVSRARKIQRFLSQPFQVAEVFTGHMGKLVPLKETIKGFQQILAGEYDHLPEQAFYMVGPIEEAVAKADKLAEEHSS
# UniProt Q9BZE9, whole entry, looked up: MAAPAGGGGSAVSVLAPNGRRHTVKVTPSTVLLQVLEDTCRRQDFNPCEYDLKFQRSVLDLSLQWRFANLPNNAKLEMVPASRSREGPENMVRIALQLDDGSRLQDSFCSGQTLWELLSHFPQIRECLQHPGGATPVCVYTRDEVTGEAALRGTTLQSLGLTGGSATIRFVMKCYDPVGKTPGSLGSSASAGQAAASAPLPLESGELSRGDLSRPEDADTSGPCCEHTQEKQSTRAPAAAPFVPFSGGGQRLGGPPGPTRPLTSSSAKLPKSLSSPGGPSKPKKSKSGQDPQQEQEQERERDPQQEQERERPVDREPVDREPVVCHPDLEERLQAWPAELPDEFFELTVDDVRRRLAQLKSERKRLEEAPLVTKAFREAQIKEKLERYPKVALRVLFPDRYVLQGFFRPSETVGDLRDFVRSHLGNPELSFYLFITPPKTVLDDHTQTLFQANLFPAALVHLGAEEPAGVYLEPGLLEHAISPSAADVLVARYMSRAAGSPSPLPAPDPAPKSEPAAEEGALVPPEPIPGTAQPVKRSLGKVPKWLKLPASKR
# UniProt Q7L266: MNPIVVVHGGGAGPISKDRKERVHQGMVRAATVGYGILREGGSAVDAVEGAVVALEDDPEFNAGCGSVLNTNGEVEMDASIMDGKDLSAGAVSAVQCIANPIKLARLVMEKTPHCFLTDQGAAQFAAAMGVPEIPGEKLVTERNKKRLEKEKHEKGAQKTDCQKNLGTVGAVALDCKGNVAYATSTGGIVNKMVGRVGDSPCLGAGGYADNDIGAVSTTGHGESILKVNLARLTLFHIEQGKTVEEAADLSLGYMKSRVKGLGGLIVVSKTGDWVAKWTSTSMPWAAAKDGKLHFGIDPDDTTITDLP
# UniProt Q96BM9: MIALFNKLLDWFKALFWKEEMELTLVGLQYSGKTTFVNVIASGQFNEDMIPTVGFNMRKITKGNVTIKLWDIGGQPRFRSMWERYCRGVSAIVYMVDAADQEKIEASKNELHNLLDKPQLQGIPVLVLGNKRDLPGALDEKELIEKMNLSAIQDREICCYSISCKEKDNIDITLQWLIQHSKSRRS
# UniProt Q9UBL3, whole entry, looked up: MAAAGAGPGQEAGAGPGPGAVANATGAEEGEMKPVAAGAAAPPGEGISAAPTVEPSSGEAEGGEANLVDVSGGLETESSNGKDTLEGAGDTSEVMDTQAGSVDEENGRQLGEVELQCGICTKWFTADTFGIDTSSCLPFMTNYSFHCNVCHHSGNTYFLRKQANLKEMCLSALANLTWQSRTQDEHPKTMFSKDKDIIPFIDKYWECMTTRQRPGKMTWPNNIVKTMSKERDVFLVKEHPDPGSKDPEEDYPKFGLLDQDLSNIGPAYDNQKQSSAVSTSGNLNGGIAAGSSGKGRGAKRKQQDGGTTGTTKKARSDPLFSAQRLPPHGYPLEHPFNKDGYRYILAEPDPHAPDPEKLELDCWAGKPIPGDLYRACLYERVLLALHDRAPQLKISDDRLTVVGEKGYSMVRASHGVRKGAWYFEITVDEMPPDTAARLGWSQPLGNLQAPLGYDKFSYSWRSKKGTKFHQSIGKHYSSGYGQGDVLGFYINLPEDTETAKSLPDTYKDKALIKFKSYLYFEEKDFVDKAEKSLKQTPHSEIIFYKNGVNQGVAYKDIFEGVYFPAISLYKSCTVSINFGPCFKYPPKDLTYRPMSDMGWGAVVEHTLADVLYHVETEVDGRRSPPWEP
# UniProt P54259: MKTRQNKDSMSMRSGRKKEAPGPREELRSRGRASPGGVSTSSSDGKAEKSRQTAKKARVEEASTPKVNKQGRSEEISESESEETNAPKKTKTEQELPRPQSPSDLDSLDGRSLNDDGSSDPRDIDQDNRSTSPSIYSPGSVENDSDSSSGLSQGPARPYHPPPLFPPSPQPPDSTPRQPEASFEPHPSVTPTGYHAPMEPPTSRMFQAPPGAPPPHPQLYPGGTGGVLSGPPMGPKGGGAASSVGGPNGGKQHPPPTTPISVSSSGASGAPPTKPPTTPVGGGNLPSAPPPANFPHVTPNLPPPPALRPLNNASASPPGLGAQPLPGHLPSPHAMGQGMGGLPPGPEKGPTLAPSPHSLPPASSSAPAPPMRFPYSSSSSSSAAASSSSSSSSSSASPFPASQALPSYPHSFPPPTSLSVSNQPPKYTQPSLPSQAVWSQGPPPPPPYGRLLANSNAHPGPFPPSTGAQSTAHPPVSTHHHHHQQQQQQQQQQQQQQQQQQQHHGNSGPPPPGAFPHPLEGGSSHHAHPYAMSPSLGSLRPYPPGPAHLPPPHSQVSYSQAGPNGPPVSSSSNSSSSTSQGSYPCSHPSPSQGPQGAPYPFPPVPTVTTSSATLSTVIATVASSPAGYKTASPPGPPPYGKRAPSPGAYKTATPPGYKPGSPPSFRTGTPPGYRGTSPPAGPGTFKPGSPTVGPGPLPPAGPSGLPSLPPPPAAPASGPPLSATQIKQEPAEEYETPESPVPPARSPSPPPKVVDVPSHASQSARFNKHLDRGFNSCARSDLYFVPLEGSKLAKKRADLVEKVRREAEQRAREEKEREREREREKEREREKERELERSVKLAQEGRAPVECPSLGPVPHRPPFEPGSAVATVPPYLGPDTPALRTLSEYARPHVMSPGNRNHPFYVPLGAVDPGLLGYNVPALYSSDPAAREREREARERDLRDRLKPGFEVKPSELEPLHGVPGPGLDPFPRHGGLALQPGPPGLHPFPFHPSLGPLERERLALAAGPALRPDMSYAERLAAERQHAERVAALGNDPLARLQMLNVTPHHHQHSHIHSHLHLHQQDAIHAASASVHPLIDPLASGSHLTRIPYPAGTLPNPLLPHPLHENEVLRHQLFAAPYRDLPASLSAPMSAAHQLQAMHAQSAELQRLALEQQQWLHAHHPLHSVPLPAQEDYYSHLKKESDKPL
# UniProt Q9UI12, whole entry, looked up: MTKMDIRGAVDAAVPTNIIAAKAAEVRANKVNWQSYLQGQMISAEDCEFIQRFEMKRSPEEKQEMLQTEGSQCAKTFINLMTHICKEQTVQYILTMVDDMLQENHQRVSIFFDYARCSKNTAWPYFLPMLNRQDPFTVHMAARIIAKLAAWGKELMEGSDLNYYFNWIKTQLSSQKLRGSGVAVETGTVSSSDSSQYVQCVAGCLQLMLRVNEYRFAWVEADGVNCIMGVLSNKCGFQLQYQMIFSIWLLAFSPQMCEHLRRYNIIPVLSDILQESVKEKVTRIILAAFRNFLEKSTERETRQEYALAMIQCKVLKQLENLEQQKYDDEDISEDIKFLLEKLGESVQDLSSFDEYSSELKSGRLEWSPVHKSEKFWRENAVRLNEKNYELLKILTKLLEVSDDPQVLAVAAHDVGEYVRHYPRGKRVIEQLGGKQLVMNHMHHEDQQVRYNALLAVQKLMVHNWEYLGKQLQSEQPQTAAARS
# UniProt Q16864, whole entry, looked up: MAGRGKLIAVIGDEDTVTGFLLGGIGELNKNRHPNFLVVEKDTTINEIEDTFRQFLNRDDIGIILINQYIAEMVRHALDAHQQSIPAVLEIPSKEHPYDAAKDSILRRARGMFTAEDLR
# UniProt Q13510, whole entry, looked up: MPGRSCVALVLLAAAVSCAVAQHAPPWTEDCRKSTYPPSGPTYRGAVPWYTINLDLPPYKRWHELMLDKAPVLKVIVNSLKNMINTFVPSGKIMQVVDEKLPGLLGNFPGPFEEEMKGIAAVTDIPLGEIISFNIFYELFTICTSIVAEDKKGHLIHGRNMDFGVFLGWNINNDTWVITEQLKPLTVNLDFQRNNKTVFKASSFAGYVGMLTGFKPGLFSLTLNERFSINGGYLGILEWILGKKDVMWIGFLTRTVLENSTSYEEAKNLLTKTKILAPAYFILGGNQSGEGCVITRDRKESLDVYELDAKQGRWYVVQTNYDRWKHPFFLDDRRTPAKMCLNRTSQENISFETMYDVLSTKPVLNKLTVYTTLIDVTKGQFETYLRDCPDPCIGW
# UniProt O75947: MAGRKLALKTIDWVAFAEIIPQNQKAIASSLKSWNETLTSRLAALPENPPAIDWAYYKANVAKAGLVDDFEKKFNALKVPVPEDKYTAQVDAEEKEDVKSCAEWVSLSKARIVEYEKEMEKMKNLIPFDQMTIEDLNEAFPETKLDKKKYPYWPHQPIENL
# UniProt P24539: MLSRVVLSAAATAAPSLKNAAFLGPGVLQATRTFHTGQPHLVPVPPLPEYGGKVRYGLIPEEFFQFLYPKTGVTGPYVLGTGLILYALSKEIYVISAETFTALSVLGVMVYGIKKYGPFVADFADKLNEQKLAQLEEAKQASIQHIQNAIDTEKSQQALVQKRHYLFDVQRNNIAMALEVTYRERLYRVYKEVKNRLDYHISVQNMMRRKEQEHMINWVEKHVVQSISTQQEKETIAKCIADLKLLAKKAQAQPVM
# UniProt P18859: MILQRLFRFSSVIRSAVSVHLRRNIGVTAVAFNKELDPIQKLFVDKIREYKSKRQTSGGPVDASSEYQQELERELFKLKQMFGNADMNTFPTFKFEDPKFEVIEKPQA
# The other results are listed elsewhere or left out.
# What was measured:
# Test in all cases: log2 fold change, soluble protein after heating vs DMSO (PISA); higher = thermal stabilisation; K562 cells, 10 uM, 30 min; active = over 0.2 and 3.5 SD of the protein, either way, in both replicates (recomputed)
# [1] = compound: COC1=CC=C(C=C1)CN2C=CC3=C2C=C(C=C3)C(=O)NO
# Procedure, shortened: (§1)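 Aliquots of K562 cells (2×10^6 cells/mL) treated with 10 μM compound for 30 min were heated for 3 min over 48°C-58°C. After pooling and extraction in PBS with 0.5% NP-40 at 4°C, soluble protein from a 21,000xg, 90 min spin was quantified by TMTpro 16plex LC-MS/MS with channel sums equalised. Thermal stability is expressed against control samples, from duplicates, as a log2 fold change.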
# filanesib = compound: CON(C)C(=O)N1N=C(c2cc(F)ccc2F)S[C@@]1(CCCN)c1ccccc1 [filanesib]
# Procedure, shortened: as §1
# zotarolimus = compound: CO[C@H]1C[C@@H]2CC[C@@H](C)[C@@](O)(O2)C(=O)C(=O)N2CCCC[C@H]2C(=O)O[C@H]([C@H](C)C[C@@H]2CC[C@H](n3cnnn3)[C@H](OC)C2)CC(=O)[C@H](C)/C=C(\C)[C@@H](O)[C@@H](OC)C(=O)[C@H](C)C[C@H](C)/C=C/C=C/C=C/1C [zotarolimus]
# Procedure, shortened: as §1
# idasanutlin = compound: COc1cc(C(=O)O)ccc1NC(=O)[C@@H]1N[C@@H](CC(C)(C)C)[C@](C#N)(c2ccc(Cl)cc2F)[C@H]1c1cccc(Cl)c1F [idasanutlin]
# Procedure, shortened: as §1
# alisertib = compound: COc1cc(Nc2ncc3c(n2)-c2ccc(Cl)cc2C(c2c(F)cccc2OC)=NC3)ccc1C(=O)O [alisertib]
# Procedure, shortened: as §1
# [2] = compound: COc1cc2nc(-c3cc(F)ccc3O)nc(N[C@@H]3CNC[C@H]3C(C)(C)O)c2cc1OC
# Procedure, shortened: as §1
# gefitinib = compound: COc1cc2ncnc(Nc3ccc(F)c(Cl)c3)c2cc1OCCCN1CCOCC1 [gefitinib]
# Procedure, shortened: as §1
# [3] = compound: COc1cccc2cc(-c3nc([C@H]4CC[C@H](C(=O)O)CC4)n4ncnc(N)c34)[nH]c12
# Procedure, shortened: as §1
# lapatinib = compound: CS(=O)(=O)CCNCc1ccc(-c2ccc3ncnc(Nc4ccc(OCc5cccc(F)c5)c(Cl)c4)c3c2)o1 [lapatinib]
# Procedure, shortened: as §1
# pictilisib = compound: CS(=O)(=O)N1CCN(Cc2cc3nc(-c4cccc5[nH]ncc45)nc(N4CCOCC4)c3s2)CC1 [pictilisib]
# Procedure, shortened: as §1
Target,log2 fold change [1],log2 fold change (filanesib),log2 fold change (zotarolimus),log2 fold change (idasanutlin),log2 fold change (alisertib),log2 fold change [2],log2 fold change (gefitinib),log2 fold change [3],log2 fold change (lapatinib),log2 fold change (pictilisib)
ATP2A3 isoform 2 (UniProt Q93084),inactive: -0.016,inactive: -0.118,inactive: -0.009,inactive: -0.027,inactive: -0.082,inactive: -0.004,inactive: -0.029,inactive: 0.02,inactive: -0.002,inactive: 0.027
ASCC1 isoform 2 (UniProt Q8N9N2),inactive: -0.032,inactive: -0.048,inactive: 0.004,inactive: -0.045,inactive: -0.075,inactive: -0.069,inactive: 0.051,inactive: 0.017,inactive: 0.044,inactive: -0.04
ATP5MF (UniProt P56134),inactive: -0.025,inactive: -0.023,inactive: -0.031,inactive: -0.018,inactive: -0.194,inactive: -0.057,inactive: 0.008,inactive: 0.058,inactive: 0.12,inactive: 0.065
ARPP19 (UniProt P56211),active: 0.294,inactive: 0.033,inactive: -0.016,inactive: 0.002,inactive: -0.061,inactive: -0.184,inactive: -0.007,inactive: 0.075,inactive: -0.01,inactive: -0.073
ATPAF2 (UniProt Q8N5M1),inactive: -0.014,inactive: -0.038,inactive: 0.016,inactive: -0.151,inactive: -0.132,inactive: 0.001,inactive: 0.024,inactive: 0.06,inactive: 0.014,inactive: -0.03
ATP2A2 (UniProt P16615),inactive: -0.021,inactive: -0.072,inactive: 0.027,inactive: -0.078,inactive: -0.017,inactive: 0.021,inactive: 0.008,inactive: 0.01,inactive: -0.001,inactive: -0.011
ARMC8 (UniProt Q8IUR7),inactive: 0.056,inactive: 0.048,inactive: 0,inactive: -0.016,inactive: -0.08,inactive: -0.014,inactive: -0.029,inactive: -0.016,inactive: 0.046,inactive: 0.005
ASAP1 isoform 2 (UniProt Q9ULH1),inactive: 0.025,inactive: 0.122,inactive: 0.02,inactive: 0.088,inactive: -0.009,inactive: 0.141,inactive: 0.133,inactive: 0.01,inactive: -0.071,inactive: -0.044
ATP7A isoform 3 (UniProt Q04656),inactive: -0.066,inactive: 0.06,inactive: -0.001,inactive: -0.033,inactive: -0.021,inactive: 0.121,inactive: 0.09,inactive: -0.007,inactive: 0,inactive: 0.073
ATP5F1B (UniProt P06576),inactive: -0.033,inactive: -0.025,inactive: -0.025,inactive: -0.001,inactive: -0.08,inactive: -0.006,inactive: 0.018,inactive: 0.064,inactive: -0.009,inactive: 0.01
ATG9A (UniProt Q7Z3C6),inactive: 0.008,inactive: -0.113,inactive: -0.014,inactive: -0.003,inactive: 0.064,inactive: -0.073,inactive: 0.011,inactive: -0.015,inactive: -0.045,inactive: 0.075
ARPC1B (UniProt O15143),inactive: 0.185,inactive: 0.018,inactive: 0.138,inactive: -0.045,inactive: -0.11,inactive: -0.139,inactive: 0.059,inactive: 0.04,inactive: 0.163,inactive: -0.103
ASPSCR1 isoform 2 (UniProt Q9BZE9),inactive: 0.033,inactive: 0.064,inactive: -0.028,inactive: 0.007,inactive: -0.016,inactive: -0.014,inactive: 0.059,inactive: 0.032,inactive: 0.028,inactive: 0.004
ARL2BP (UniProt Q9Y2Y0),inactive: 0.287,inactive: -0.061,inactive: 0.062,inactive: -0.012,inactive: -0.074,inactive: -0.049,inactive: 0.028,inactive: 0.02,inactive: -0.025,inactive: 0.098
ASRGL1 (UniProt Q7L266),inactive: 0.011,inactive: -0.003,inactive: 0.034,inactive: -0.012,inactive: 0.048,inactive: 0.033,inactive: 0.007,inactive: 0.178,inactive: -0.008,inactive: 0.013
ARL8A (UniProt Q96BM9),inactive: 0.037,inactive: -0.011,inactive: -0.046,inactive: -0.089,inactive: 0.019,inactive: 0.01,inactive: -0.108,inactive: 0.08,inactive: -0.034,inactive: 0.086

Target,log2 fold change [1],log2 fold change (filanesib),log2 fold change (zotarolimus),log2 fold change (idasanutlin),log2 fold change (alisertib),log2 fold change [2],log2 fold change (gefitinib),log2 fold change [3],log2 fold change (lapatinib),log2 fold change (pictilisib)
ASH2L (UniProt Q9UBL3),inactive: 0.019,inactive: 0.044,inactive: 0.096,inactive: 0.021,inactive: -0.034,inactive: 0.035,inactive: 0.004,inactive: -0.014,inactive: -0.011,inactive: 0.039
ATN1 (UniProt P54259),inactive: 0.101,inactive: 0.079,inactive: -0.001,inactive: -0.013,inactive: -0.019,inactive: -0.038,inactive: -0.051,inactive: 0.018,inactive: -0.031,inactive: 0.056
ATP6V1H (UniProt Q9UI12),inactive: 0.035,inactive: -0.106,inactive: 0.055,inactive: -0.067,inactive: -0.1,inactive: -0.064,inactive: -0.121,inactive: -0.073,inactive: -0.009,inactive: -0.063
ATP6V1F isoform 2 (UniProt Q16864),inactive: 0.126,inactive: 0.162,inactive: 0.036,inactive: 0.095,inactive: -0.158,inactive: -0.151,inactive: 0.019,inactive: 0.021,inactive: -0.112,inactive: -0.054
ASAH1 isoform 2 (UniProt Q13510),inactive: 0.029,inactive: -0.078,inactive: -0.038,inactive: -0.002,inactive: -0.009,inactive: -0.003,inactive: -0.115,inactive: 0.071,inactive: -0.069,inactive: 0.034
ATP7B (UniProt P35670),inactive: -0.02,inactive: 0.087,inactive: -0.075,active: -0.233,inactive: -0.02,inactive: -0.011,inactive: 0.028,inactive: 0.026,inactive: 0.061,inactive: 0.061
ARMCX3 (UniProt Q9UH62),inactive: 0.002,inactive: 0.074,inactive: 0.004,inactive: 0.02,inactive: 0.084,inactive: 0.128,inactive: -0.039,inactive: 0.036,inactive: -0.042,inactive: -0.011
ARPC4 isoform 3 (UniProt P59998),inactive: -0.127,inactive: -0.007,inactive: 0.022,inactive: -0.039,inactive: -0.048,inactive: 0.058,inactive: 0.013,inactive: 0.083,inactive: -0.066,inactive: 0.108
ATP5PO (UniProt P48047),inactive: 0.042,inactive: -0.025,inactive: 0,inactive: 0.043,inactive: -0.063,inactive: -0.008,inactive: -0.001,inactive: 0.038,inactive: 0,inactive: 0.003
ARPC5L (UniProt Q9BPX5),inactive: -0.026,inactive: 0.052,inactive: 0.032,inactive: -0.062,inactive: -0.022,inactive: 0.044,inactive: 0.02,inactive: 0.051,inactive: 0.002,inactive: 0.069
ATP6V1C1 (UniProt P21283),inactive: -0.012,inactive: 0.029,inactive: 0.08,inactive: 0.016,inactive: -0.069,inactive: -0.091,inactive: -0.286,inactive: -0.206,inactive: -0.046,inactive: -0.022
ATP5PD (UniProt O75947),inactive: 0.002,inactive: -0.031,inactive: 0.009,inactive: -0.021,inactive: -0.014,inactive: 0.007,inactive: -0.003,inactive: 0.005,inactive: -0.047,inactive: -0.014
ATP5F1B (UniProt F8W0P7),inactive: 0.138,inactive: 0.082,,inactive: 0.044,inactive: -0.063,inactive: 0.011,inactive: 0.044,inactive: 0.179,inactive: -0.054,
ATP5PB (UniProt P24539),inactive: 0.033,inactive: -0.036,inactive: -0.007,inactive: -0.015,inactive: -0.033,inactive: -0.037,inactive: 0.005,inactive: 0.036,inactive: 0.004,inactive: 0.005
ATP5PF isoform 2 (UniProt P18859),inactive: 0,inactive: 0.122,inactive: 0.04,inactive: 0.029,inactive: -0.055,inactive: -0.183,inactive: 0.032,inactive: 0.036,inactive: -0.058,inactive: 0.106

# Some of the entries above in a different format.
Target | log2 fold change [1] | log2 fold change (filanesib) | log2 fold change (zotarolimus) | log2 fold change (idasanutlin) | log2 fold change (alisertib) | log2 fold change [2] | log2 fold change (gefitinib) | log2 fold change [3] | log2 fold change (lapatinib) | log2 fold change (pictilisib)
ATP7A isoform 3 (UniProt Q04656) | inactive: -0.066 | inactive: 0.06 | inactive: -0.001 | inactive: -0.033 | inactive: -0.021 | inactive: 0.121 | inactive: 0.09 | inactive: -0.007 | inactive: 0 | inactive: 0.073
ATP5F1B (UniProt P06576) | inactive: -0.033 | inactive: -0.025 | inactive: -0.025 | inactive: -0.001 | inactive: -0.08 | inactive: -0.006 | inactive: 0.018 | inactive: 0.064 | inactive: -0.009 | inactive: 0.01
